Laboratory results: PubChem BioAssay AID2685 (National Center for Advancing Translational Sciences (NCATS), 2010)
Some of the results follow. Further columns of the screen follow, without active or inactive calls. Compounds called inactive in the main read-out are mostly missing here. Potencies come from curve fits of mixed quality, noted in brackets.

Assay: qHTS Assay for Lipid Storage Modulators in Drosophila S3 Cells;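 as to cell number change: cells counted by Cell Tracker Red CMTPX staining in the red channel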
Conditions: BODIPY lipid droplet fluorescence, 18-24 h; for cell number change: measured here: cell count max response, cells fed with added oleic acid
Method in brief: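 Drosophila S3 cells got compounds at several concentrations plus oleic acid (400 uM solution). Laser-scanning cytometry with 488 nm excitation read lipid droplets at 500-530 nm and cells at 575-640 nm. Percent activity was relative to 20 uM Triacsin C.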

[1] = measured here: lipid fluorescence (Fed channel) AC50, cells fed with added oleic acid
[2] = measured here: cell number channel AC50, cells fed with added oleic acid

| SMILES | cell number change [%] | AC50 [1] | AC50 [2] |
| --- | --- | --- | --- |
| O=c1cc(-c2ccccc2Cl)oc2cc(O)cc(O)c12 | 15.3 | 0.731 µM [rising, full curve, poor fit] |  |
| O=C(NCc1ccco1)C1CCCN1C(=O)Nc1ccccc1[N+](=O)[O-] (stereo unspecified) | 16.1 | 6.51 µM [rising, single point] |  |
| O=C(CN1CCC(O)(c2ccccc2)CC1)Nc1ccc2c(c1)OCCO2 | 35 | 18.4 µM [rising, single point] |  |
| COc1ccc(C(=O)CCC(=O)Nc2ccc(N3CCCCC3)cc2)cc1OC | 2.7 | 29.1 µM [falling, single point] |  |
| CS(=O)(=O)c1sc(C#N)c2c1C(=O)CC(c1ccccc1)C2 (stereo unspecified) | -62.9 | 13 µM [falling, partial curve] | 11.6 µM [falling, partial curve] |
| CN(C(=O)CN1C(=O)NC(c2ccccc2)(c2ccccc2)C1=O)C1CCS(=O)(=O)C1 (stereo unspecified) |  | 2.59 µM [rising, full curve] |  |
| FC(F)(F)c1cccc(CN2CCSCC2)c1 | 17.1 | 32.6 µM [rising, single point] |  |
| Fc1ccc(/C=N/N2CCCCC2)c(F)c1 | 6.52 | 0.58 µM [rising, full curve, poor fit] |  |
| CC1Cc2ccccc2N1C(=O)CN(C)CC(=O)Nc1ccc(F)cc1 (stereo unspecified) | 1.27 | 18.4 µM [rising, single point] |  |
| Cc1nn(Cc2ccc(Cl)cc2)c(C)c1NC(=O)c1cc(C(C)C)on1 | 14.6 | 0.00461 µM [rising, full curve, poor fit] |  |
| CCCOc1cccc(OCC(=O)Nc2nc3ccccc3[nH]2)c1 | -5.1 | 5.8 µM [rising, partial curve] |  |
| CCOc1ccc(C2Nc3ccc4ccccc4c3-c3c2c(=O)oc2ccccc32)cc1 (stereo unspecified) |  | 2.06 µM [rising, partial curve] | 0.731 µM [rising, partial curve] |
| CN(C)C1=NC[C@H](Cc2ccccc2)N1CCCC1CCCC1 | 33.2 | 23.1 µM [rising, single point] | 29.1 µM [rising, single point] |
| CC1(C)CC2(CCO1)CNC(=O)O2 (stereo unspecified) | -28.5 | 2.91 µM [falling, full curve] |  |
| O=[N+]([O-])c1ccc(N2CCN(C(=S)NCc3ccc(Cl)cc3)CC2)cc1 | -27.5 | 29.1 µM [falling, single point] |  |
| Cc1ccc(C(=O)Nc2nc3ccccc3c(=O)s2)cc1 | -38.3 | 32.6 µM [falling, single point] | 5.17 µM [falling, full curve, poor fit] |
| O=S(=O)(c1ccc(SCc2ccccc2)nc1)N1CCCC1 | 1.2 |  |  |
| CCCn1c(NC(=O)c2ccc(F)cc2)nc2ccccc21 | -0.611 |  | 2.31 µM [rising, single point] |
| CC(=O)Nc1ncc2c(n1)CC(c1ccco1)CC2=O (stereo unspecified) | 1.6 | 2.31 µM [rising, single point] |  |
| COc1cccc(C2CCCN2Cc2nc(-c3cnccn3)no2)c1 (stereo unspecified) | 17.6 | 0.184 µM [rising, full curve, poor fit] |  |

| SMILES | cell number change [%] | AC50 [1] | AC50 [2] |
| --- | --- | --- | --- |
| NC(=O)c1c(/N=C/c2cccs2)sc2c1CCCC2 | 9.82 | 29.1 µM [rising, single point] |  |
| Cc1nc2c3ccccc3nc(SCC(=O)N3CC(C)CC(C)C3)n2n1 (stereo unspecified) | -21 | 4.61 µM [rising, partial curve] | 2.59 µM [rising, partial curve] |
| COc1cc2c(cc1OC)C1O[C@](CCCCN3C(=O)c4ccccc4C3=O)(C2)Oc2c1c(=O)oc1ccccc21 | -2.47 | 2.99 µM [falling, single point] |  |
| Cc1cc(C)nc(N/N=C/c2ccccc2Cl)n1 | 21.4 | 14.6 µM [rising, partial curve] |  |
| COc1cccc(CN2CCC(n3nccc3NC(=O)C3CC3)CC2)c1 | 42.9 | 2.31 µM [rising, full curve, poor fit] | 23.1 µM [rising, single point] |
| CC(=O)Nc1ccc(S(=O)(=O)N2CCN(C(=O)N3CCCCC3)CC2)cc1 | 24.1 | 0.58 µM [falling, single point] |  |
| COc1ccc(NS(=O)(=O)c2cc(NC(=O)c3cnc(C)cn3)ccc2N2CCCC2)cc1 | 4.4 | 20.6 µM [rising, single point] |  |
| O=C(CCCN1C(=O)/C(=C\c2cccs2)SC1=S)Nc1cccc(C(=O)O)c1 | 0.407 | 6.51 µM [falling, single point] | 6.51 µM [falling, single point] |
| O=C(NO)c1ccccc1C(F)(F)F | -15.6 | 29.1 µM [falling, single point] |  |
| Cc1cc(C)c(-c2nc3ccccc3s2)[nH]1 | 26.2 |  |  |
| CCOC(=O)[C@H]1[C@H]2COc3ccc(OC)cc3[C@@H]2N2C(=O)CN(Cc3ccco3)C(=O)[C@@]12C | -9.44 |  |  |
| Cc1c(C(=O)c2ccccc2C(=O)O)sc2ccccc12 | -11.1 |  |  |
| CC12CCC(=O)N1C(C(=O)NCCN1C(=O)S/C(=C\c3ccc(OC(F)F)cc3)C1=O)CS2 (stereo unspecified) | -26.9 | 18.4 µM [falling, single point] |  |
| Cc1cc(COC(=O)C2N3C(=O)[C@@H](NC(=O)COc4ccccc4)[C@H]3SC2(C)C)on1 (stereo partly specified) | 29.4 |  |  |
| COc1ccc(NC(=O)Nc2cnccn2)c(OC)c1 | 5.49 |  | 0.092 µM [rising, full curve, poor fit] |
| NCCC1CCCC(CCN)N1 (stereo unspecified) | -19.9 | 3.66 µM [falling, single point] | 0.731 µM [falling, full curve] |
| CCc1ccc2[nH]c(=O)c(CN(CCN(C)C)C(=O)Nc3ccccc3)cc2c1 |  | 5.8 µM [falling, single point] | 6.51 µM [falling, single point] |
| O=C(Nc1ccccc1N1CCN(C(=O)c2ccc(Cl)cc2)CC1)c1cc2ccccc2o1 | 159 | 0.651 µM [rising, single point] | 20.6 µM [rising, partial curve] |
| Cn1c2c(c(=O)n(C)c1=O)C(c1ccc(O)cc1)Nc1ccccc1O2 (stereo unspecified) |  | 20.6 µM [rising, single point] | 0.82 µM [rising, full curve, poor fit] |
| Cc1c(C(=O)N/N=C/c2ccc(N3CCOCC3)cc2)nc2ccccn12 | 5.83 | 1.46 µM [rising, single point] |  |

| SMILES | cell number change [%] | AC50 [1] | AC50 [2] |
| --- | --- | --- | --- |
| CC(=O)NS(=O)(=O)c1ccc(N2C(=O)CC(Sc3nccc(C)n3)C2=O)cc1 (stereo unspecified) | -4.56 |  |  |
| CC(=O)Nc1ccc(OCC(O)Cn2ccnc2)cc1 (stereo unspecified) |  | 0.13 µM [rising, full curve] |  |
| C/C(=N\NC(=O)c1c(Cl)cnn1C)c1cccnc1 | 0.829 | 6.51 µM [falling, single point] |  |
| Cn1cccc1/C=N/NC(N)=S | -28.1 | 4.61 µM [falling, full curve, poor fit] | 4.61 µM [falling, full curve, poor fit] |
| O=C(Nc1ccc(N2CCOCC2)cc1)c1cccc(S(=O)(=O)N2CCC(Cc3ccccc3)CC2)c1 | 44 | 20.6 µM [rising, partial curve] | 16.4 µM [rising, partial curve] |
| Cc1ccc(N(C(=O)c2snc(C(N)=O)c2N)C(CC(C)C)C(=O)NC2CCCC2)cc1 (stereo unspecified) | -17.1 |  | 0.00651 µM [falling, full curve, poor fit] |
| CCCCNc1nnc(SCC(=O)c2c(N)n(CCC)c(=O)[nH]c2=O)s1 | 13.1 | 29.1 µM [rising, single point] |  |
| c1ccc(C2(CNc3ccccn3)CCCC2)cc1 |  |  | 4.61 µM [rising, single point] |
| COc1ccc(OCC(=O)Nc2ccc3c(c2)n(C)c(=O)n3C)cc1 | 13.5 | 14.6 µM [rising, single point] |  |
| CCc1ccc(CNC(=O)Cc2ccc(NC(=O)C3=C(C)OCCS3)cc2)cc1 |  | 3.66 µM [rising, partial curve] |  |
| COc1cc(C2C(C(=O)c3ccco3)=C(O)C(=O)N2Cc2cccnc2)cc(OC)c1OC (stereo unspecified) | 11.6 |  |  |
| Cc1ccc(NC(=O)NC(=O)COc2ccc(Cl)cc2Cl)c(C)c1 | -0.87 | 0.164 µM [rising, full curve, poor fit] |  |
| CN1c2ccccc2Oc2c(c(=O)n(C)c(=O)n2C)C1c1cccc([N+](=O)[O-])c1 (stereo unspecified) | 14.7 |  |  |
| CCOC(=O)c1c(NC(=O)COC(=O)c2nc(Cl)ccc2Cl)sc2c1CCC2 | 19.5 | 5.17 µM [rising, full curve, poor fit] |  |
| CC(Sc1nnc(-c2ccco2)n1-c1ccccc1)C(=O)NCC1CCCO1 (stereo unspecified) | -31.4 | 20.6 µM [falling, single point] | 14.6 µM [falling, partial curve, poor fit] |
| Cc1ccc(S(=O)(=O)NC(=O)COc2ccccc2C(N)=O)cc1 | -25.9 |  |  |
| CC(C)(C)NC(=O)C(Cc1ccccc1)NS(=O)(=O)c1cccc2nsnc12 (stereo unspecified) | -121 | 0.411 µM [falling, partial curve, poor fit] | 29.1 µM [falling, partial curve] |
| Cn1c2c(c(=O)n(C)c1=O)C(c1ccccc1Cl)CC(=O)N2 (stereo unspecified) | -43.9 | 0.82 µM [falling, full curve] | 23.1 µM [falling, single point] |
